{
  "source": "PubChem BioAssay AID256",
  "about": "(DTP/NCI, 2004)",
  "test_system": "CD2F1 mice, L1210 leukemia ip, survival T/C",
  "assay": "NCI In Vivo Anticancer Drug Screen. Data for tumor model L1210 Leukemia (intraperitoneal) in CD2F1 (CDF1) mice",
  "settings": "T/C endpoint: mean survival time, higher T/C = longer survival",
  "in_short": "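Activity against a transplanted murine tumor was judged by comparing the compound group with a vehicle group. The outcome in the treated animals was divided by that in the controls.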",
  "key": {"[1]": {"settings": "dose: 400.0 mg/kg/injection, schedule: Q04DX003 (ip), vehicle: saline with Tween-80"}},
  "note": "The list does not hold the whole screen: it is rich in T/C values a quarter to a half above the control, in often repeated tests (any T/C) and in doses without a T/C. Other doses and runs of a compound stand elsewhere. T/C: endpoint of the treated group in % of that of the vehicle group. Some doses have a count of surviving animals in place of a T/C: the source holds a T/C of zero for them, seemingly a mark for toxic or unscored doses. Some doses without a T/C left all or most animals alive at the check, yet need not have been tolerated: survival well below the control is almost never listed, so the zero probably covers shortened survival too. Survivors were counted at the toxicity check, usually on the fifth day, unless a day is given; later deaths do not show. Schedule codes are those of the source, taken here to give the interval after Q, in days (D) or hours (H), and the number of doses after X. For survival time, the PubChem record calls one and a half times the control and up active, and a quarter to a half above the control has no call in these data; cut-offs in other NCI protocols can differ. Some entries hold several experiments; the results are listed from low to high. Some T/C values carry the count of animals alive at the toxicity check (mostly the fifth day); without a count, all were alive then.",
  "data": [
    {"smiles": "OCCN1CCN(CC/C=C2\\c3ccccc3Sc3ccc(Cl)cc32)CC1", "values": [
      {"measurement": "T/C", "setting": "dose: 25.0 mg/kg/injection, schedule: Q01DX009 (ip), vehicle: saline", "value": "138 % of control"}
    ]},
    {"smiles": "Cc1ccccc1NC(=O)CN(C)C", "values": [
      {"measurement": "survivor count", "setting": "dose: 400.0 mg/kg/injection, schedule: Q01DX001 (ip), vehicle: other", "value": "3 of 6"}
    ]},
    {"smiles": "CSCC(NC(=O)OCc1ccccc1)C(=O)O", "note": "(stereo not drawn)", "values": [
      {"measurement": "survivor count", "setting": "[1]", "value": "3 of 6"}
    ]},
    {"smiles": "CCN(CC)CCCC(C)NC(c1ccc2c(c1)Sc1ccccc1O2)[P+](=O)O", "note": "(stereo not drawn)", "values": [
      {"measurement": "survivor count", "setting": "dose: 400.0 mg/kg/injection, schedule: Q01DX001 (ip), vehicle: saline sonified", "value": "0 of 6"}
    ]},
    {"smiles": "O=C1C=CC(=O)N1c1cc(Cl)ccc1Cl", "values": [
      {"measurement": "survivor count", "setting": "[1]", "value": "0 of 3"}
    ]},
    {"smiles": "CCCC(C)C1(CC)C(=O)NC(=O)NC1=O", "note": "(stereo not drawn)", "values": [
      {"measurement": "survivor count", "setting": "dose: 80.0 mg/kg/injection, schedule: Q01DX009 (ip), vehicle: saline", "value": "5 of 6"}
    ]},
    {"smiles": "CC1CCCC2C(=O)OC(=O)C12", "note": "(stereo not drawn)", "values": [
      {"measurement": "survivor count", "setting": "dose: 400.0 mg/kg/injection, schedule: Q04DX003 (ip), vehicle: Klucel (hydroxypropylcellulose) (HPC)", "value": "2 of 3"}
    ]},
    {"smiles": "C[n+]1c(-c2cc(Cl)cc(Cl)c2)c2cc(N)ccc2c2ccccc21", "values": [
      {"measurement": "survivor count", "setting": "dose: 50.0 mg/kg/injection, schedule: Q01DX009 (ip), vehicle: water", "value": "6 of 6"},
      {"measurement": "survivor count", "setting": "dose: 100.0 mg/kg/injection, schedule: Q01DX009 (ip), vehicle: water", "value": "0 of 6"}
    ]},
    {"smiles": "OCCN1CCN(CCCN2c3ccccc3Sc3ccc(Cl)cc32)CC1", "values": [
      {"measurement": "T/C", "setting": "dose: 25.0 mg/kg/injection, schedule: Q04DX002 (ip), vehicle: Klucel (hydroxypropylcellulose) (HPC)", "value": "131 % of control [5 of 6 alive]"},
      {"measurement": "T/C", "setting": "dose: 50.0 mg/kg/injection, schedule: Q01DX009 (ip), vehicle: Klucel (hydroxypropylcellulose) (HPC)", "value": "127 % of control [5 of 6 alive]"},
      {"measurement": "T/C", "setting": "dose: 50.0 mg/kg/injection, schedule: Q04DX003 (ip), vehicle: saline", "value": "127 % of control"},
      {"measurement": "survivor count", "setting": "dose: 50.0 mg/kg/injection, schedule: Q04DX009 (ip), vehicle: Klucel (hydroxypropylcellulose) (HPC)", "value": "2 of 6"},
      {"measurement": "T/C", "setting": "dose: 100.0 mg/kg/injection, schedule: Q04DX003 (ip), vehicle: saline", "value": "128 and 130 % of control"},
      {"measurement": "survivor count", "setting": "dose: 100.0 mg/kg/injection, schedule: Q04DX009 (ip), vehicle: Klucel (hydroxypropylcellulose) (HPC)", "value": "0 of 6"},
      {"measurement": "T/C", "setting": "dose: 200.0 mg/kg/injection, schedule: Q04DX003 (ip), vehicle: saline", "value": "135 % of control [5 of 6 alive]"},
      {"measurement": "survivor count", "setting": "dose: 200.0 mg/kg/injection, schedule: Q04DX009 (ip), vehicle: Klucel (hydroxypropylcellulose) (HPC)", "value": "0 of 6"}
    ]},
    {"smiles": "CN(C)CC1CC2(CC(CN(C)C)C1=O)OCCO2", "note": "(stereo not drawn)", "values": [
      {"measurement": "survivor count", "setting": "dose: 75.0 mg/kg/injection, schedule: Q01DX001 (ip), vehicle: other", "value": "0 of 6"},
      {"measurement": "survivor count", "setting": "dose: 150.0 mg/kg/injection, schedule: Q01DX001 (ip), vehicle: other", "value": "0 of 6"},
      {"measurement": "survivor count", "setting": "dose: 300.0 mg/kg/injection, schedule: Q01DX001 (ip), vehicle: other", "value": "0 of 6"}
    ]},
    {"smiles": "NC(CSS(=O)(=O)O)=NCc1cccs1", "values": [
      {"measurement": "survivor count", "setting": "dose: 100.0 mg/kg/injection, schedule: Q04DX002 (ip), vehicle: saline with Tween-80", "value": "0 of 3"},
      {"measurement": "survivor count", "setting": "dose: 200.0 mg/kg/injection, schedule: Q04DX002 (ip), vehicle: saline with Tween-80", "value": "0 of 3"},
      {"measurement": "survivor count", "setting": "dose: 400.0 mg/kg/injection, schedule: Q04DX002 (ip), vehicle: saline with Tween-80", "value": "0 of 3"}
    ]},
    {"smiles": "CCN(CC)c1cc(Nc2c3ccc(Cl)cc3nc3cc(Cl)ccc23)ccc1O", "values": [
      {"measurement": "survivor count", "setting": "dose: 400.0 mg/kg/injection, schedule: Q01DX009 (ip), vehicle: saline with Tween-80", "value": "0 of 6"}
    ]},
    {"smiles": "CC[S+](CC)CC", "values": [
      {"measurement": "survivor count", "setting": "dose: 200.0 mg/kg/injection, schedule: Q01DX009 (ip), vehicle: saline", "value": "1 of 6"}
    ]},
    {"smiles": "COc1ccc(C(=O)C[P+](c2ccccc2)(c2ccccc2)c2ccccc2)cc1", "values": [
      {"measurement": "survivor count", "setting": "dose: 100.0 mg/kg/injection, schedule: Q01DX001 (ip), vehicle: saline", "value": "3 of 6"},
      {"measurement": "survivor count", "setting": "dose: 200.0 mg/kg/injection, schedule: Q01DX001 (ip), vehicle: saline", "value": "1 of 6"},
      {"measurement": "survivor count", "setting": "dose: 400.0 mg/kg/injection, schedule: Q01DX001 (ip), vehicle: saline", "value": "0 of 6"}
    ]},
    {"smiles": "C1CC2N=NC1C21CC1.[Cl][Cu][Cl]", "values": [
      {"measurement": "survivor count", "setting": "dose: 25.0 mg/kg/injection, schedule: Q04DX002 (ip), vehicle: saline with Tween-80", "value": "1 of 3"}
    ]},
    {"smiles": "CC12CCC3C(CC=C4CC(OC(=N)N)CCC43C)C1CCC2=O", "note": "(stereo not drawn)", "values": [
      {"measurement": "survivor count", "setting": "dose: 300.0 mg/kg/injection, schedule: Q01DX001 (ip), vehicle: saline", "value": "0 of 6"}
    ]},
    {"smiles": "CN(C)/C=N\\c1ncnc2c1cnn2C1OC(CO)C(O)C1O", "note": "(stereo not drawn)", "values": [
      {"measurement": "survivor count", "setting": "dose: 100.0 mg/kg/injection, schedule: Q01DX005 (ip), vehicle: water", "value": "5 of 6"},
      {"measurement": "survivor count", "setting": "dose: 200.0 mg/kg/injection, schedule: Q01DX005 (ip), vehicle: water", "value": "5 of 6"},
      {"measurement": "survivor count", "setting": "dose: 400.0 mg/kg/injection, schedule: Q01DX005 (ip), vehicle: water", "value": "5 of 6"}
    ]}
  ]
}
